{
  "sequences": {"note": "Amino acid sequences for entries named in this document (tags omitted). Residues count along the entry.", "UniProt P06213, residues 28-1382": "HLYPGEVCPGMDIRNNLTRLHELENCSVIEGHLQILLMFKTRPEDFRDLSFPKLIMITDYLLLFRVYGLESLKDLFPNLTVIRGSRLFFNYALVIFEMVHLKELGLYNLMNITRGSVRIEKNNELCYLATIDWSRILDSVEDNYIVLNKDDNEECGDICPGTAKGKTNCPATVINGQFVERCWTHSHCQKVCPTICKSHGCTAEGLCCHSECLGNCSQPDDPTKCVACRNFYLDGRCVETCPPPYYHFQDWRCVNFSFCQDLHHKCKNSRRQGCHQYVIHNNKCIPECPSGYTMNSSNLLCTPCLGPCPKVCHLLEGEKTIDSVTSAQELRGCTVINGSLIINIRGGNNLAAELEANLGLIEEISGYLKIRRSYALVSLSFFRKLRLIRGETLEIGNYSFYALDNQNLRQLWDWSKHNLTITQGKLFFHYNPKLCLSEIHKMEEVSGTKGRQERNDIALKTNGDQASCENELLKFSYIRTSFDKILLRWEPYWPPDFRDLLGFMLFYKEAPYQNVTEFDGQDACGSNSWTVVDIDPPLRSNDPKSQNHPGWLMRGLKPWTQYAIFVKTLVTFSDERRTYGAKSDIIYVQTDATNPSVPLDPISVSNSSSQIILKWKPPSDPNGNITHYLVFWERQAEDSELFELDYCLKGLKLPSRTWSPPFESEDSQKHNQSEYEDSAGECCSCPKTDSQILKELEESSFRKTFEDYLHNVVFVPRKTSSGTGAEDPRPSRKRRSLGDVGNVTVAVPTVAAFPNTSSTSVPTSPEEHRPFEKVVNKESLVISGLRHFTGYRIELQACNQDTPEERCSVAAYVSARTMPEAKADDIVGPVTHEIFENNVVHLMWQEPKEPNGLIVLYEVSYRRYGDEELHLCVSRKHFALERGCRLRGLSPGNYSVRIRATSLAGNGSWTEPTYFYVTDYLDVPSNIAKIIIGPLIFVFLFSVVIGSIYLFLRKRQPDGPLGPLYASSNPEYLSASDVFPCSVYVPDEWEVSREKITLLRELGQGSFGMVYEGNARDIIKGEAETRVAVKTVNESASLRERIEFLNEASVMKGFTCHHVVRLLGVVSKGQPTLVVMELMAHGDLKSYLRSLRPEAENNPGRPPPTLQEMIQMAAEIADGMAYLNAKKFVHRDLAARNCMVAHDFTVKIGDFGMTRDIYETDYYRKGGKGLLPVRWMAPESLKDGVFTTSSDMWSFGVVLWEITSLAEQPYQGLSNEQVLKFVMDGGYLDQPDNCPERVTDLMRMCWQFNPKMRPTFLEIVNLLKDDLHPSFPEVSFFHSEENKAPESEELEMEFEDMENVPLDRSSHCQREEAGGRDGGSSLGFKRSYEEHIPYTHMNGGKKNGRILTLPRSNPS"},
  "source": "patent US20220098266A1",
  "about": "(AKSTON BIOSCIENCES, published 2022)",
  "binders": {"B1": {"name": "insulin-Fc fusion protein of SEQ ID NO: 29 (SEQ ID NO: 24 with des hinge D and the mutation cNg-NB138-K; canine IgGB Fc fragment SEQ ID NO: 15) (Fc fusion)", "chain": "FVNQHLCGSDLVEALALVCGERGFFYTDPTGGGPRRGIVEQCCHSICSLYQLENYCNGGGGAGGGGCPKCPAPEMLGGPSVFIFPPKPKDTLLIARTPEVTCVVVDLDPEDPEVQISWFVDGKQMQTAKTQPREEQFKGTYRVVSVLPIGHQDWLKGKQFTCKVNNKALPSPIERTISKARGQAHQPSVYVLPPSREELSKNTVSLTCLIKDFFPPDIDVEWQSNGQQEPESKYRTTPPQLDEDGSYFLYSKLSVDKSRWQRGDTFICAVMHEALHNHYTQESLSHSPG", "notes": "Made in HEK293 cells; Non-glycosylated homodimer, 98.1% homodimer; also called cNg-K"}, "B2": {"name": "insulin-Fc fusion protein of SEQ ID NO: 27 (SEQ ID NO: 24 with the mutation cNg-NB139-S; canine IgGB Fc fragment SEQ ID NO: 14) (Fc fusion)", "chain": "FVNQHLCGSDLVEALALVCGERGFFYTDPTGGGPRRGIVEQCCHSICSLYQLENYCNGGGGAGGGGDCPKCPAPEMLGGPSVFIFPPKPKDTLLIARTPEVTCVVVDLDPEDPEVQISWFVDGKQMQTAKTQPREEQFSGTYRVVSVLPIGHQDWLKGKQFTCKVNNKALPSPIERTISKARGQAHQPSVYVLPPSREELSKNTVSLTCLIKDFFPPDIDVEWQSNGQQEPESKYRTTPPQLDEDGSYFLYSKLSVDKSRWQRGDTFICAVMHEALHNHYTQESLSHSPG", "notes": "Made in HEK293 cells; Non-glycosylated homodimer, 98.3% homodimer; also called cNg-S"}},
  "target": "human insulin receptor on human IM-9 cells (human) (UniProt P06213)",
  "experiment": "flow cytometry competition with biotinylated RHI on IM-9 cells at 4 C",
  "note": "These are yes or no findings as the source states them, for the method shown. Some results given as binding are weak or reduced against the parent protein; the word gives no strength. Tags and fused reporters may be left off the sequences shown.",
  "data": [
    {"binder": "B1", "values": [
      {"measurement": "binding", "value": "binds"}
    ]},
    {"binder": "B2", "values": [
      {"measurement": "binding", "value": "binds"}
    ]}
  ]
}
